Here are results for 59 compounds from PubChem BioAssay AID1273 (Columbia University Molecular Screening Center, 2008).

This is one part of the list. These are further read-outs of the screen, such as a control signal, another cell line or another target. No call is given for them. Most of these compounds were active or inconclusive in the main read-out, so they are no random draw.

The nature of this assay: inhibitors of insulin promoter-driven GFP, primary screen, imaging, TRM-6 cells (human fetal islet line), eGFP reporter, cell count (AID 1273;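 note: cells exposed to compound for 48 h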). The note with it: measured here: cell count, toxicity, at 2 µM, reporter expression induced with tamoxifen.
`O=C(CSc1ncccn1)NN=C1CCCCCC1` gave a normalized cell count of 172%.

The compound `O=C(NCc1ccccc1)N[C@@H](Cc1c[nH]c2ccccc12)C(=O)O` displayed a normalized cell count of 78.9%.

Consider `CN1C(=O)NC(c2ccccc2)C2=C1CN(Cc1ccco1)C2=O` (centres undefined), for which the normalized cell count turned out to be 67.5%.

With `Cc1[nH]nc2ncc(C(=O)c3ccccc3O)cc12`, the normalized cell count stood at 130%.

Compound `Cc1nc2c([nH]c3ccccc32)c(=O)n1N` came in with a normalized cell count of 74.7%.

In turn, `COc1ccc(NC(=O)COC(=O)C2CC3C=CC2C3)cc1` (centres undefined) displayed a normalized cell count of 94.4%.

For `Cc1ccc(NC(=O)CC(O)(C(F)(F)F)C(F)(F)F)cc1`, the normalized cell count was 128%.

For `C#CCn1c(-c2cccs2)nc2ccccc21`, the normalized cell count came out at 141%.

With `COc1ccc2cc3c(N)nn(C(=O)C4CCC(C(C)(C)C)CC4)c3nc2c1` (centres undefined), the normalized cell count was 90.3%.

`NC(=O)Cc1nc(-c2ccc([N+](=O)[O-])cc2)cs1` had a normalized cell count of 95.5%.

Consider `CCC(=O)c1cc(F)c(N2CCN(C(=O)c3ccco3)CC2)cc1C`, for which the normalized cell count worked out at 139%.

On to `Nc1cc(N2CCCCC2)c([N+](=O)[O-])cc1Cl`, for which the normalized cell count was 115%.

Take `O=C(Nc1ccc2nc(-c3ccccc3)[nH]c2c1)c1cccs1`: the normalized cell count came to 185%.

Turning to `O=C(N/N=C/c1cc([N+](=O)[O-])c(N2CCOCC2)cc1N1CCOCC1)c1cccnc1`, the normalized cell count amounted to 120%.

In turn, `COC(=O)c1ccc(Oc2nc(C(N)=O)cc(-c3ccccc3)n2)cc1` yielded a normalized cell count of 57%.

As for `Nc1ncc(Br)cc1N=Cc1ccccc1`, the normalized cell count was determined as 83.3%.

`COc1ccc(CNC(=O)/C=C/c2ccco2)cc1OC` came in with a normalized cell count of 19.4%.

Turning to `Cc1ccc(SCC2=NN(c3nc(C)cc(C)n3)C(=O)C2)cc1`, the normalized cell count is 95.1%.

In turn, `CCCCN1CCc2c1nc1ccc(Br)cc1c2N` came in with a normalized cell count of 127%.

The compound `CC(C)NC(=O)c1onc(CSc2ccc(F)cc2)c1C(=O)O` came in with a normalized cell count of 42.6%.

In the case of `C/C=C/CSc1nc2c(c(=O)[nH]c(=O)n2C)n1CCC`, the normalized cell count was found to be 98.4%.

Take `CC(C)(C)C(=O)Nc1ccc(S(=O)(=O)c2ccc(NC(=O)C(C)(C)C)cc2)cc1`: the normalized cell count was 89.6%.

`Cc1ccc(-n2c(=O)cc(N3CC(C)CC(C)C3)[nH]c2=O)cc1` (centres undefined) returned a normalized cell count of 88.7%.

Take `CC(C)C(c1nnnn1C1CCCCC1)N1CCCc2ccccc21` (centres undefined): the normalized cell count amounted to 114%.

As to `CCNC(=S)N=Nc1c(O)[nH]c2ccc(C(C)C)cc12`, the normalized cell count amounted to 118%.

On to `Cc1nc2ccccc2c2oc(C(=O)NCCN3CCCCC3C)cc12` (centres undefined), for which the normalized cell count was 149%.

In turn, `c1csc(-c2cn3ccc4ccccc4c3n2)c1` gave a normalized cell count of 60.9%.

`Cc1cc(C(=O)NCC2COc3ccccc3O2)c2ccccc2n1` (centres undefined) returned a normalized cell count of 104%.

`O=C(CN1C(=O)NC2(CCCC2)C1=O)Nc1cccc(-c2nnc3n2CCCCC3)c1` came in with a normalized cell count of 124%.

Compound `CCOC(=O)CS(=O)(=O)c1ccc2ccccc2c1` yielded a normalized cell count of 123%.

In the case of `O=C(CCl)Nc1cc(-c2ccccc2)nn1-c1ccccc1`, the normalized cell count amounted to 127%.

`CS(=O)(=O)N(CC(=O)N1CCCC1)c1ccc(OCc2ccccc2)cc1`: the normalized cell count worked out at 44.9%.

With `C(=N\Nc1ncnc2ccccc12)/c1ccccc1`, the normalized cell count amounted to 50.6%.

In turn, `O=C(CCCSc1ccccc1)Nc1nc(-c2ccco2)c(-c2ccco2)s1` returned a normalized cell count of 72.8%.

For `COc1ccc(CN2CCN(C(=O)CC(C)C)CC2)c2ccccc12`, the normalized cell count was 101%.

For the compound `O=c1[nH]c(CN2CCN(CCO)CC2)nc2ccccc12`, the normalized cell count was found to be 18.6%.

In turn, `CC(C)(C)NC(=O)C(c1ccco1)N(C(=O)Cn1nnc(-c2ccc(F)cc2)n1)c1ccccc1` (centres undefined) yielded a normalized cell count of 84.4%.

In the case of `Cc1cccc2sc(NNC(=O)c3ccc(S(=O)(=O)N4CCCC(C)C4)cc3)nc12` (centres undefined), the normalized cell count amounted to 83.1%.

For `COc1ccc2nc(-c3cccc(N)c3)[nH]c2c1`, the normalized cell count was 150%.

`CCCc1c(C)[nH]c2ccccc2c1=O` came in with a normalized cell count of 122%.

Regarding `COc1ccc(CNC(=O)C2CC(c3cccc(OC)c3)=NO2)cc1` (centres undefined), the normalized cell count was determined as 73.2%.

In the case of `COc1ccc2c(c1)C(C)CC(C)(C)N2C(=O)NC1CCCCC1` (centres undefined), the normalized cell count amounted to 98.1%.

`c1ccc(CSCc2nc3ccccc3[nH]2)cc1` yielded a normalized cell count of 147%.

As for `CCCn1c(=S)[nH]c2cc(C(=O)NCC3CCCO3)ccc2c1=O` (centres undefined), the normalized cell count came out at 61.5%.

The compound `CCOC(=O)/C=C1\NC(C)(C)Cc2cc(OC)c(OC)cc21` yielded a normalized cell count of 53.8%.

Compound `O=C(NC(Cc1ccc2c(c1)OCO2)C(=O)N1CCCC1C(=O)O)c1ccccc1` (centres undefined) yielded a normalized cell count of 125%.

For the compound `CCOC(=O)N1CCN(C(=O)CCN2C(=O)COc3ccccc32)CC1`, the normalized cell count stood at 89.7%.

In turn, `CCCCOc1ccc(C(=O)C(CN2CCOCC2)c2ccccc2)cc1` (centres undefined) returned a normalized cell count of 82.5%.

`COCCNC(=O)Cn1c(=O)n(CCCCCC(=O)NCc2ccc3c(c2)OCO3)c(=O)c2sccc21`: the normalized cell count amounted to 99.2%.

Compound `CCCCn1cnc2c(cnn2-c2ccc(F)cc2)c1=O` had a normalized cell count of 91.7%.

For `O=S(=O)(Nc1ccc(S(=O)(=O)N2CCCCCC2)cc1)c1cccs1`, the normalized cell count was determined as 85.9%.

In turn, `Cc1nn(-c2ccccc2)c(C)c1/C=N/Nc1nc2ccccc2[nH]1` came in with a normalized cell count of 89.3%.

For the compound `COc1cccc(/C=N/N2CCN(C)CC2)c1`, the normalized cell count is 94.2%.

In the case of `O=C(CCn1c(=S)oc2ccccc21)N1CCCCC1`, the normalized cell count came to 119%.

Compound `Cc1ccc(S(=O)(=O)c2c(C)nn(C(C)(C)C)c2OC(=O)C2CCCC2)cc1` had a normalized cell count of 70%.

Consider `CCOc1ccc(Nc2nc(N)nc(CN(C)C3CCCCC3)n2)cc1`, for which the normalized cell count amounted to 103%.

For the compound `COc1ccc(C(OCC2CO2)c2ccc(OC)cc2)cc1` (centres undefined), the normalized cell count was 108%.

In the case of `CCc1nnc(NC(=O)CSc2nnc(-c3ccoc3C)n2-c2ccccc2)s1`, the normalized cell count was 98.6%.

In turn, `O=C(c1cccs1)N1CCC(c2ccccc2)C1` (centres undefined) returned a normalized cell count of 76.1%.
